Record: PubChem BioAssay AID652259 (Drosophila RNAi Screening Center, 2013)
In all, the deposit lists about 22,000 reagents; this is an unselected part of those with a known target gene and a result. Of all reagents, 233 (1.1%) were called active. 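Light values are raw, unnormalised plate reads; the ratio scores behind the reporter calls were not deposited.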 Reagents against one gene are numbered here. Not given: the amount of reagent, the time to read-out, the dose of the treatment.

Aim: 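Identify new Wingless signalling regulators in fly cells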 (primary screen)
Cells: Drosophila clone 8 imaginal disc epithelial cells
Reagent: long dsRNA against Drosophila genes
Conditions: pathway stimulated by co-transfected Wingless expression plasmid
Detection: 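Firefly luciferase from a tcf-site Wingless reporter, measured alongside co-transfected Renilla luciferase that tracks transfection; pathway stimulated by a Wingless plasmid; the firefly-to-Renilla ratio is not deposited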
Direction: firefly reporter light: higher = more Wg reporter light, before normalisation; Renilla control light: higher = more transfected or surviving cells
Hit rule: 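Strong candidates differ from their plate mean by at least two out of four per-plate statistical tests; weak candidates meet just one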
Meaning of the calls: active = candidate regulator (raises or lowers reporter); inactive = not a candidate

After knock-down of CG2233 the results were firefly reporter light, replicate 1 = 2193; firefly reporter light, replicate 2 = 4281; Renilla control light, replicate 1 = 1035; Renilla control light, replicate 2 = 1364; inactive.
After knock-down of CG18190 the results were firefly reporter light, replicate 1 = 7154; Renilla control light, replicate 1 = 2471; inactive.
For CG8006, the entry reads firefly reporter light, replicate 1 = 2651; Renilla control light, replicate 1 = 1216; inactive.
For CG10513, the entry reads firefly reporter light, replicate 1 = 4091; firefly reporter light, replicate 2 = 7385; Renilla control light, replicate 1 = 1413; Renilla control light, replicate 2 = 1056; inactive.
Depletion of RluA-1 (RluA pseudouridine synthase 1) #1 came out at: firefly reporter light, replicate 1 = 2034; firefly reporter light, replicate 2 = 4800; Renilla control light, replicate 1 = 661; Renilla control light, replicate 2 = 3068; inactive.
Knock-down of RluA-1 (RluA pseudouridine synthase 1) #2 gave: firefly reporter light, replicate 1 = 2551; firefly reporter light, replicate 2 = 6693; Renilla control light, replicate 1 = 613; Renilla control light, replicate 2 = 2861; inactive.
Depletion of CG8840 resulted in: firefly reporter light, replicate 1 = 2668; firefly reporter light, replicate 2 = 5810; Renilla control light, replicate 1 = 884; Renilla control light, replicate 2 = 3133; inactive.
Cyp4aa1 (Cytochrome P450 4aa1) showed firefly reporter light, replicate 1 = 3349; Renilla control light, replicate 1 = 1702; inactive.
Silencing of AdoR (Adenosine receptor) resulted in: firefly reporter light, replicate 1 = 3240; Renilla control light, replicate 1 = 1648; inactive.
alpha-Spec (alpha Spectrin) gave firefly reporter light, replicate 1 = 17190; Renilla control light, replicate 1 = 4123; inactive.
CG6689 scored firefly reporter light, replicate 1 = 4845; Renilla control light, replicate 1 = 1523; inactive.
After knock-down of CG5953 #1, the screen gave firefly reporter light, replicate 1 = 18520; Renilla control light, replicate 1 = 7728; inactive.
Knock-down of CG5953 #2 gave: reporter change call, replicate 1 = Wg reporter activity raised; firefly reporter light, replicate 1 = 4516; firefly reporter light, replicate 2 = 10685; Renilla control light, replicate 1 = 496; Renilla control light, replicate 2 = 1372; active.
For drk (downstream of receptor kinase), the entry reads firefly reporter light, replicate 1 = 17281; Renilla control light, replicate 1 = 3766; inactive.
For lky (leaky), the entry reads firefly reporter light, replicate 1 = 17968; Renilla control light, replicate 1 = 8577; inactive.
After knock-down of CG14589, the screen gave firefly reporter light, replicate 1 = 2484; firefly reporter light, replicate 2 = 6344; Renilla control light, replicate 1 = 898; Renilla control light, replicate 2 = 2541; inactive.
CG11597 scored firefly reporter light, replicate 1 = 3056; Renilla control light, replicate 1 = 1584; inactive.

A stretch of the results above, as a working copy:
CG5953 #2 → reporter change call, replicate 1 = Wg reporter activity raised; firefly reporter light, replicate 1 = 4516; firefly reporter light, replicate 2 = 10685; Renilla control light, replicate 1 = 496; Renilla control light, replicate 2 = 1372; Outcome = active
drk (downstream of receptor kinase) → firefly reporter light, replicate 1 = 17281; Renilla control light, replicate 1 = 3766; Outcome = inactive
